Targets include AKT1 (UniProt P31749); ALK (UniProt Q9UM73); ARAF (UniProt P10398); AURKA (UniProt O14965); AURKB (UniProt Q96GD4); AURKC (UniProt Q9UQB9); BLK (UniProt P51451); BMX (UniProt P51813); BRAF (UniProt P15056).
Assay in all cases: kinase-Nluc reporter destabilization hit call (1 = scored as downregulated) (binary); higher = compound decreases kinase abundance
What all share (details): K562, 2-18 h

The chains behind the UniProt entries cited, without tags or fusion partners. Where a name states a change or a piece, a line headed by the entry shows the natural chain unless it says otherwise.
UniProt P31749: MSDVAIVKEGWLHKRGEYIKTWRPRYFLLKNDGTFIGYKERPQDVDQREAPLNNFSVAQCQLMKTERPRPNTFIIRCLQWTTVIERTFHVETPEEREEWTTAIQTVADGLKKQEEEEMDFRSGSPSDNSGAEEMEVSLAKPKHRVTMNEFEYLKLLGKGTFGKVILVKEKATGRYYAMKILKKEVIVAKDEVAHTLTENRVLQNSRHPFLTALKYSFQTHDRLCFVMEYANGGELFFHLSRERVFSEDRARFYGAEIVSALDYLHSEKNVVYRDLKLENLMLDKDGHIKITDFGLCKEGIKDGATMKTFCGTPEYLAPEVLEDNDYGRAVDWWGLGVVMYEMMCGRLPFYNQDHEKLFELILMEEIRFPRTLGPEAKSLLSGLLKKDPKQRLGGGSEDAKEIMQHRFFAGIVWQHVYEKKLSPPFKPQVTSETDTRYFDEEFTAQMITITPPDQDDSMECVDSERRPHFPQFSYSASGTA
UniProt Q9UM73: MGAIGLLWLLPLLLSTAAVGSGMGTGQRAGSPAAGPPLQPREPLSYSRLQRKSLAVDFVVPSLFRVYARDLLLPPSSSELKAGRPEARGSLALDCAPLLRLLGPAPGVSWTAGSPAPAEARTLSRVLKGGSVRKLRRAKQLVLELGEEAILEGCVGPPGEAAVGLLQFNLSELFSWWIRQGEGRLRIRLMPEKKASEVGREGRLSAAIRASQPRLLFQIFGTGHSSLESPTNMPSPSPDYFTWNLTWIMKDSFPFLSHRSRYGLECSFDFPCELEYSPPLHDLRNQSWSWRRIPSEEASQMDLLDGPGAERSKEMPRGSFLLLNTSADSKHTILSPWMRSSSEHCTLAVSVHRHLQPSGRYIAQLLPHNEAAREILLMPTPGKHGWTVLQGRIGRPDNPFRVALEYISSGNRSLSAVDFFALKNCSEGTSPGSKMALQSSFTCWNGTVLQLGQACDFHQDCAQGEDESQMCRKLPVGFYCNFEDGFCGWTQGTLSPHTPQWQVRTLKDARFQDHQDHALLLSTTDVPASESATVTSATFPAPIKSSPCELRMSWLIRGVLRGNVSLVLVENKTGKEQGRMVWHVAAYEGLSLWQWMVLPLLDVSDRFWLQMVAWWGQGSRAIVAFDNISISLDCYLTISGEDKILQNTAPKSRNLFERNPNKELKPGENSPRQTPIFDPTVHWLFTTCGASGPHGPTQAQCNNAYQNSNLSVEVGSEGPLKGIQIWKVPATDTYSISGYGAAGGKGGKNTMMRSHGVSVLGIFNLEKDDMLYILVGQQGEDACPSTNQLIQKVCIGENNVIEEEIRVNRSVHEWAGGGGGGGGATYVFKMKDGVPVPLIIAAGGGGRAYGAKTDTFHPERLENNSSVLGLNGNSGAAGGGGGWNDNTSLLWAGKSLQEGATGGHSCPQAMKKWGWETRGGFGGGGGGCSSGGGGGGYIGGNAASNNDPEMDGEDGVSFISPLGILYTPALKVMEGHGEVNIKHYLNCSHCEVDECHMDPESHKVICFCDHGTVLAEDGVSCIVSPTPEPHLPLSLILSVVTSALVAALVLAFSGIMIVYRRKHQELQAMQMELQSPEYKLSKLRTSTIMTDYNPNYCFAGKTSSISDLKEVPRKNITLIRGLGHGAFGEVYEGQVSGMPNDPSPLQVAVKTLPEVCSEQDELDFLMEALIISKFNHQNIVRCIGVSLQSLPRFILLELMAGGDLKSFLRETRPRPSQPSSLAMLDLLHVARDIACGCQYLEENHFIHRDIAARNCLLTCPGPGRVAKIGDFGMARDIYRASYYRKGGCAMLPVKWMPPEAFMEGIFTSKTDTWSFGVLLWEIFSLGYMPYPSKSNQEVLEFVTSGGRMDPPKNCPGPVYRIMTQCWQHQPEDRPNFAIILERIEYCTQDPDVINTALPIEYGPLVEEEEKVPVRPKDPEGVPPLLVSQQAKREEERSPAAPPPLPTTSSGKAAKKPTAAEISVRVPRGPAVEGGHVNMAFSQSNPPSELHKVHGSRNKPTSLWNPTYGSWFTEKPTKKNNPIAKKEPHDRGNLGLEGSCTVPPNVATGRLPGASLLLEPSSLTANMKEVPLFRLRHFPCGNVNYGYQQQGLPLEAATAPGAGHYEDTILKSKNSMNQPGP
UniProt P10398: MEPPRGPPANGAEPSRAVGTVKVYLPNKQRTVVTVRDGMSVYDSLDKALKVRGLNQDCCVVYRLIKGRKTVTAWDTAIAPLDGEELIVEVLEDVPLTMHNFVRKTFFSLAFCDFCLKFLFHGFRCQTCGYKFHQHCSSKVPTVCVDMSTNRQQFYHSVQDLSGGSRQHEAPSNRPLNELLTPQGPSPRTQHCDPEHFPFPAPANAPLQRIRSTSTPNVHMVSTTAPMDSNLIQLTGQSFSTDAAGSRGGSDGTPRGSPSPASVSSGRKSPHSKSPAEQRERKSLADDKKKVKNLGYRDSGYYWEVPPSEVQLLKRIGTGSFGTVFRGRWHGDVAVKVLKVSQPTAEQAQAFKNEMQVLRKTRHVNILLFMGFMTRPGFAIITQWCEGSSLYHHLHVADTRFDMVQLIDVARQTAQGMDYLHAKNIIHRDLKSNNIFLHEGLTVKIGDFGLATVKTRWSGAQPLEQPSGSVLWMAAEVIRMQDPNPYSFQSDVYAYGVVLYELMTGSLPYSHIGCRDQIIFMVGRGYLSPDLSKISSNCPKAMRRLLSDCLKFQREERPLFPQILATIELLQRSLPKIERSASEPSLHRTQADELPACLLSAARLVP
UniProt O14965: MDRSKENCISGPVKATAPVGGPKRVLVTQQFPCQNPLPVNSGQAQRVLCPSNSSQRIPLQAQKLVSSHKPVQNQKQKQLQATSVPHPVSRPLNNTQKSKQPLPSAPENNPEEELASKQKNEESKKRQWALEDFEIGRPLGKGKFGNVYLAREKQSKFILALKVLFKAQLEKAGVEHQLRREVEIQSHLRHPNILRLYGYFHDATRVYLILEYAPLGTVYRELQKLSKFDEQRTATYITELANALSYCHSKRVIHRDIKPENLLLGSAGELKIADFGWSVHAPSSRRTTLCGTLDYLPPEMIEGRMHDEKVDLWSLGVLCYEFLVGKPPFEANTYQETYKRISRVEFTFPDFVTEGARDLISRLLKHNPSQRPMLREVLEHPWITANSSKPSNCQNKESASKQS
UniProt Q96GD4, whole entry: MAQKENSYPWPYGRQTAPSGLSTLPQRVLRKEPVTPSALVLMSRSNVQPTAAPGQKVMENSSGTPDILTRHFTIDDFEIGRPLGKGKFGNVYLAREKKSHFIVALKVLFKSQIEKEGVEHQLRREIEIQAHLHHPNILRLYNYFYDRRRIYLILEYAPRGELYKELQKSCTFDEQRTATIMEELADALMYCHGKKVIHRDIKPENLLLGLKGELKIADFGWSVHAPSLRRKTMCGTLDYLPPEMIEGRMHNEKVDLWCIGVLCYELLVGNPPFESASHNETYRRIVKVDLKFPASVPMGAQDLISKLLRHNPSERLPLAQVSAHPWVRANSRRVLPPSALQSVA
UniProt Q9UQB9: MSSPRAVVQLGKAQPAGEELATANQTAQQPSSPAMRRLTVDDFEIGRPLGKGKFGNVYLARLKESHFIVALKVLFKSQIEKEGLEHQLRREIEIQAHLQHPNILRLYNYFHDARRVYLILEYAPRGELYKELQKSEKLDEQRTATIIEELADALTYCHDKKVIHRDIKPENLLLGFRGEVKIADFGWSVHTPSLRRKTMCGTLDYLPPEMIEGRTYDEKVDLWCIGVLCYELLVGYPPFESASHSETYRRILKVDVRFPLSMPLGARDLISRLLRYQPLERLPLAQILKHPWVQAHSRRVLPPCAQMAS
UniProt P51451: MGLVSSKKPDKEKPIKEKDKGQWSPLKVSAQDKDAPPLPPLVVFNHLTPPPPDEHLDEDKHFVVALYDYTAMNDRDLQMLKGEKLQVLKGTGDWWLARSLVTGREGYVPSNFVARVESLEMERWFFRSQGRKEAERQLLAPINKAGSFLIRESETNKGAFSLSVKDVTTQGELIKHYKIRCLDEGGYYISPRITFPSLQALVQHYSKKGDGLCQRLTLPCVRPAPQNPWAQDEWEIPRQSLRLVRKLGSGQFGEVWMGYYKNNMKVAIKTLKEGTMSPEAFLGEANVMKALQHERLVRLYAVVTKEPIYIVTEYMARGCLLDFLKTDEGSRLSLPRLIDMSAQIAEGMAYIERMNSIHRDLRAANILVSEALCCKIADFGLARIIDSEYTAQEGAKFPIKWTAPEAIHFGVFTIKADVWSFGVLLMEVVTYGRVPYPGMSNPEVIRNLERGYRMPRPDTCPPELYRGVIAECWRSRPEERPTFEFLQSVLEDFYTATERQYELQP
UniProt P51813: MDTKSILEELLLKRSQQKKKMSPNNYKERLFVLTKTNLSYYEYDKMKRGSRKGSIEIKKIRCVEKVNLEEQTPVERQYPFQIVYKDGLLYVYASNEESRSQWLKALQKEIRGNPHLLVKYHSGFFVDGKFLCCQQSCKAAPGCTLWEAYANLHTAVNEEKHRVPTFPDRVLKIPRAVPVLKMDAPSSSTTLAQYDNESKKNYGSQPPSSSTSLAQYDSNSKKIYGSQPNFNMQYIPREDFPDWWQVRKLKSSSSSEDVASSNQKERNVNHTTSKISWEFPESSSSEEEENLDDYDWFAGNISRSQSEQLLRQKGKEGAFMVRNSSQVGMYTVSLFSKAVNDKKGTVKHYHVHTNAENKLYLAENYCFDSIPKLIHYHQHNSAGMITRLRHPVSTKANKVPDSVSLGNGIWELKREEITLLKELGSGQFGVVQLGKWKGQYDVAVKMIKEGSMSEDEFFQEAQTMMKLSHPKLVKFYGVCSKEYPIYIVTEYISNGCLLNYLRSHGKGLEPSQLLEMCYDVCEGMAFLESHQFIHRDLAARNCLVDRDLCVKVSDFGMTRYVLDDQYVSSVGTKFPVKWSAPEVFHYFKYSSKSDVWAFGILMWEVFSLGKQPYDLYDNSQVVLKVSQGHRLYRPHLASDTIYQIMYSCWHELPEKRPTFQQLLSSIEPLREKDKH
UniProt P15056, whole entry, looked up: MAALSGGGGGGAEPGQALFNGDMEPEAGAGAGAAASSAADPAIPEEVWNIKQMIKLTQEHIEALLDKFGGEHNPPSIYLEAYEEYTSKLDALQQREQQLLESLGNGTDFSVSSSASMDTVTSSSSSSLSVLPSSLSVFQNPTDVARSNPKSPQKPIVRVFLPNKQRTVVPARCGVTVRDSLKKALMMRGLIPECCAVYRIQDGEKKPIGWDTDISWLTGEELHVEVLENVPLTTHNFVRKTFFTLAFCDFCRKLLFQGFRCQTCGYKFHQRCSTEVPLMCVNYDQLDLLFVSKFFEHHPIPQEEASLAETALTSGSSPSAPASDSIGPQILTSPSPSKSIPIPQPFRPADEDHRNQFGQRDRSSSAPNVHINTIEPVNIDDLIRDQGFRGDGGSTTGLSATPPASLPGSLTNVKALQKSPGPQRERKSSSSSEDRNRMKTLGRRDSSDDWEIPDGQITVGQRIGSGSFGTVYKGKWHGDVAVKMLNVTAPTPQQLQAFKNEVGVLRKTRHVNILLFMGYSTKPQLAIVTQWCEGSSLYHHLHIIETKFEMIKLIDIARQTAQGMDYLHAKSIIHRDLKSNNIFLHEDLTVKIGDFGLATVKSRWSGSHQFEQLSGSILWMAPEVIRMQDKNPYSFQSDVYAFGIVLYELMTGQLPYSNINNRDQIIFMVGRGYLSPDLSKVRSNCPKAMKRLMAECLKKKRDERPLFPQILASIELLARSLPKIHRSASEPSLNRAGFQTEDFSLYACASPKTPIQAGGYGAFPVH

Counter-ions that a name gives are not always drawn. The list shows a part of the results. The calls rarely recur for the same compound in another form.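 Kinases were expressed as nanoluciferase fusions in K562 cells and luminescence was read every 4 h between 2 and 18 h as percent of control, DMSO set to 100% and a positive control to 0%. A time point counts as decreased when the signal drops significantly (2 sigma). The hit call is the authors' own, does not follow from the count of time points alone, and its rule is not shown.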

For `Nc1ncnc2c1c(-c1cnc3[nH]ccc3c1)nn2C1CCCC1`, the “kinase-Nluc reporter destabilization hit call” value in the assay with AKT1 (2.5 µM), with ALK (2.5 µM), with ARAF (2.5 µM), with AURKA (2.5 µM), with AURKB (2.5 µM) and in the assay with AURKC (2.5 µM) was inactive: 0 each time. The “kinase-Nluc reporter destabilization hit call” value in the assay with BLK (2.5 µM), with BMX (2.5 µM) and in the assay with BRAF (2.5 µM) was inactive: 0 in each case.
On to `O=C(NCCCNc1nc(Nc2cccc(CN3CCOCC3)c2)ncc1C1CC1)C1CCC1`, for which the “kinase-Nluc reporter destabilization hit call” value with AKT1 (10 µM), with ALK (10 µM), with ARAF (10 µM), in the assay with AURKA (10 µM), in the assay with AURKB (10 µM) and with AURKC (10 µM) was inactive: 0 in each case. Also, the “kinase-Nluc reporter destabilization hit call” value with BLK (10 µM), with BMX (10 µM) and in the assay with BRAF (10 µM) was inactive: 0 throughout.
Consider `Nc1ncnc2n[nH]c(-c3ccc(Oc4ccccc4)cc3)c12` [Ibrutinib deacryloylpiperidine], for which the “kinase-Nluc reporter destabilization hit call” value with AKT1 (10 µM), with ALK (10 µM), in the assay with ARAF (10 µM), in the assay with AURKA (10 µM), with AURKB (10 µM) and with AURKC (10 µM) was inactive: 0 throughout. Also, the “kinase-Nluc reporter destabilization hit call” value in the assay with BLK (10 µM), in the assay with BMX (10 µM) and with BRAF (10 µM) was inactive: 0 in each case.
`C=CC(=O)Nc1cc2c(Nc3ccc(F)c(Cl)c3)ncnc2cc1OCCCN1CCOCC1` [Canertinib]: the “kinase-Nluc reporter destabilization hit call” value with AKT1 (10 µM), with ALK (10 µM), with ARAF (10 µM), in the assay with AURKA (10 µM), with AURKB (10 µM) and in the assay with AURKC (10 µM) was inactive: 0 throughout. In addition, the “kinase-Nluc reporter destabilization hit call” value with BLK (10 µM) and with BRAF (10 µM) was inactive: 0 in each case.
In the case of `O=S(=O)(c1cccc2c(O)nccc12)N1CCCNCC1` [Hydroxyfasudil], the “kinase-Nluc reporter destabilization hit call” value in the assay with AKT1 (10 µM), with ALK (10 µM), in the assay with ARAF (10 µM), with AURKA (10 µM), in the assay with AURKB (10 µM) and in the assay with AURKC (10 µM) was inactive: 0 in each case. The “kinase-Nluc reporter destabilization hit call” value with BLK (10 µM) and with BMX (10 µM) was inactive: 0 throughout.
With `COc1cc2ncnc(Nc3ccc(F)c(Cl)c3)c2cc1OCCCN1CCOCC1` [Gefitinib], the “kinase-Nluc reporter destabilization hit call” value with AKT1 (10 µM), with ALK (10 µM), in the assay with ARAF (10 µM), with AURKA (10 µM), with AURKB (10 µM) and with AURKC (10 µM) was inactive: 0 throughout. In addition, the “kinase-Nluc reporter destabilization hit call” value with BLK (10 µM), with BMX (10 µM) and with BRAF (10 µM) was inactive: 0 in each case.
Take `Cc1cnc(Nc2ccc(OCCN3CCCC3)cc2)nc1Nc1cccc(S(=O)(=O)NC(C)(C)C)c1` [Fedratinib]: the “kinase-Nluc reporter destabilization hit call” value in the assay with AKT1 (2.5 µM), with ALK (2.5 µM), with ARAF (2.5 µM), with AURKA (2.5 µM), with AURKB (2.5 µM) and with AURKC (2.5 µM) was inactive: 0 each time. The “kinase-Nluc reporter destabilization hit call” value with BLK (2.5 µM) and with BRAF (2.5 µM) was inactive: 0 throughout.
In the case of `Cc1[nH]c(/C=C2\C(=O)Nc3ccc(F)cc32)c(C)c1C(=O)NC[C@H](O)CN1CCOCC1`, the “kinase-Nluc reporter destabilization hit call” value with AKT1 (2.5 µM), in the assay with ALK (2.5 µM), with ARAF (2.5 µM), in the assay with AURKA (2.5 µM), in the assay with AURKC (2.5 µM) and with BLK (2.5 µM) was inactive: 0 in each case. Moreover, the “kinase-Nluc reporter destabilization hit call” value with BMX (2.5 µM) and in the assay with BRAF (2.5 µM) was inactive: 0 in each case.
Take `Cc1ccc(-n2nc(C(C)(C)C)cc2NC(=O)Nc2ccc(OCCN3CCOCC3)c3ccccc23)cc1` [Doramapimod]: the “kinase-Nluc reporter destabilization hit call” value with AKT1 (10 µM), with ALK (10 µM), with ARAF (10 µM), with AURKA (10 µM), in the assay with AURKB (10 µM) and with AURKC (10 µM) was inactive: 0 throughout. Besides, the “kinase-Nluc reporter destabilization hit call” value with BLK (10 µM) and with BMX (10 µM) was inactive: 0 in each case.
For the compound `Cc1cnc(Nc2ccc(OCCN3CCCC3)cc2)nc1Nc1cccc(S(=O)(=O)NC(C)(C)C)c1` [Fedratinib (hydrochloride hydrate)], the “kinase-Nluc reporter destabilization hit call” value in the assay with AKT1 (2.5 µM), with ALK (2.5 µM), with ARAF (2.5 µM), with AURKA (2.5 µM), with AURKB (2.5 µM) and in the assay with AURKC (2.5 µM) was inactive: 0 throughout. The “kinase-Nluc reporter destabilization hit call” value with BLK (2.5 µM) and with BRAF (2.5 µM) was inactive: 0 throughout.
For the compound `CCN(CC)CCNC(=O)c1c(C)[nH]c(/C=C2\C(=O)Nc3ccc(F)cc32)c1C` [Sunitinib], the “kinase-Nluc reporter destabilization hit call” value in the assay with AKT1 (2.5 µM), in the assay with ALK (2.5 µM), in the assay with ARAF (2.5 µM), with AURKA (2.5 µM), with AURKB (2.5 µM) and with AURKC (2.5 µM) was inactive: 0 throughout. The “kinase-Nluc reporter destabilization hit call” value with BLK (2.5 µM), with BMX (2.5 µM) and with BRAF (2.5 µM) was inactive: 0 throughout.
As for `Cc1nc(Nc2ncc(C(=O)Nc3c(C)cccc3Cl)s2)cc(N2CCN(CCO)CC2)n1` [Dasatinib], the “kinase-Nluc reporter destabilization hit call” value with AKT1 (2.5 µM) is inactive: 0; with ALK (2.5 µM), inactive: 0; with ARAF (2.5 µM) it was inactive: 0; with AURKA (2.5 µM), inactive: 0; with AURKB (2.5 µM), inactive: 0; with AURKC (2.5 µM) it was active: 1. In the assay with BLK (2.5 µM), the “kinase-Nluc reporter destabilization hit call” value was inactive: 0.
Consider `COc1cc2ncnc(Nc3cccc(Br)c3)c2cc1OC`, for which the “kinase-Nluc reporter destabilization hit call” value with AKT1 (10 µM), with ALK (10 µM), in the assay with ARAF (10 µM), with AURKA (10 µM), with AURKB (10 µM) and in the assay with AURKC (10 µM) was inactive: 0 in each case. In addition, the “kinase-Nluc reporter destabilization hit call” value with BLK (10 µM), with BMX (10 µM) and in the assay with BRAF (10 µM) was inactive: 0 in each case.
On to `CC1(C)C(=O)N([C@H]2CCc3c(O)cccc32)c2nc(Nc3cccc(CN4CCCC4)c3)ncc21`, for which the “kinase-Nluc reporter destabilization hit call” value in the assay with AKT1 (2.5 µM), with ALK (2.5 µM), in the assay with ARAF (2.5 µM), in the assay with AURKA (2.5 µM), with AURKB (2.5 µM) and with AURKC (2.5 µM) was inactive: 0 each time. The “kinase-Nluc reporter destabilization hit call” value in the assay with BLK (2.5 µM), with BMX (2.5 µM) and with BRAF (2.5 µM) was inactive: 0 throughout.
On to `Nc1nc(Nc2ccc(S(N)(=O)=O)cc2)nn1C(=O)c1c(F)cccc1F`, for which the “kinase-Nluc reporter destabilization hit call” value in the assay with AKT1 (2.5 µM), with ALK (2.5 µM), with ARAF (2.5 µM), in the assay with AURKC (2.5 µM), in the assay with BLK (2.5 µM) and in the assay with BRAF (2.5 µM) was inactive: 0 in each case.
As to `COc1ccc(-c2c[nH]c3nccc(-c4ccsc4)c23)c(OC)c1`, the “kinase-Nluc reporter destabilization hit call” value with AKT1 (10 µM), in the assay with ALK (10 µM), with ARAF (10 µM), with AURKA (10 µM), with AURKB (10 µM) and with AURKC (10 µM) was inactive: 0 in each case. In addition, the “kinase-Nluc reporter destabilization hit call” value with BLK (10 µM), with BMX (10 µM) and in the assay with BRAF (10 µM) was inactive: 0 each time.
Turning to `Cc1cn(-c2cc(NC(=O)c3ccc(C)c(Nc4nccc(-c5cccnc5)n4)c3)cc(C(F)(F)F)c2)cn1` [Nilotinib], the “kinase-Nluc reporter destabilization hit call” value with AKT1 (2.5 µM), in the assay with ALK (2.5 µM), with ARAF (2.5 µM), with AURKA (2.5 µM), with AURKB (2.5 µM) and with AURKC (2.5 µM) was inactive: 0 in each case. Besides, the “kinase-Nluc reporter destabilization hit call” value in the assay with BLK (2.5 µM) was inactive: 0.

The record behind these values is the supplement of paper PMC12823440, “Inhibitors supercharge kinase turnover through native proteolytic circuits” (Nature, 2025).
